# Assay results

Data taken from PubChem BioAssay AID1159506, deposited by NCATS (2015).

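Luminescence from an EWS-FLI1 target-promoter (NR0B1) reporter, set against a CMV-promoter reporter, two days after silencing single genes in TC32 Ewing sarcoma cells.
Each siRNA was applied at 20 nM.
A z-score of the log NR0B1-over-CMV signal, less the median of siRNAs with the same seed; more negative means a stronger specific loss of the NR0B1 reporter.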

This is part of the screen; most of the strongest results are not listed here.
Sequences are the guide (antisense) strand, without overhang.

Sequence,target gene,seed-corrected z-score
UGCUUCUCUACUACCAUCU,WNT3,0.289
UAACAAAACAGUAGCCUCG,RBM18,-0.7804
UUGGGUUGACUCAUUGAUC,CNN1,2.19
AUGGUUUCGUUGGUGGUGC,LYPD2,-0.4708
UUUUGAUGAGGAUCGUAUC,KLHL28,0.1008
AUAGAAUUGAUGUAUUUGC,CFHR3,0.6348
UCAAAGUGGAUGAAGGUCU,CARNS1,0.8699
UGACUUUCAGUAGCCGAGC,DNALI1,-0.1804
AUCUCGACAAACUUAUGCC,RYR2,-0.07605
AAAGAUAAUAUCCAAUGCC,LOC199882,-0.1226
UUCUUAACCACUUCAAUGG,CCNE2,0.6336
UAUGCGGCAUCCACAGCUG,CST9LP1,-0.1528
UUUAGAGUCACCAUGUAUG,ZSWIM3,-1.151
UCACAACUUUGGAUGAUUC,ZNF583,0.1452
UGUUGUAAGAGGGCUUCUU,CTLA4,1.051
UGCUCGUUGCUUAAAAACC,ZNF320,0.3981
AAACGGAACAGAAGUCUGU,CD164,1.66
UAGGCUUAAUACGAGUAUC,USP32,-0.007263
UUGCGUCUCACGAACCGGU,ABT1,0.8849
UUCUAAAUCGCGAAUGGUC,MYLK,0.3189
AAAGAGCACAUAGAUGAGG,LOC440742,0.5563
UACUCGUACAUUCCAUCUG,SLC45A2,0.4491
AACGGAUACAAUCAAACAC,KLHL41,-0.04136
UAUCUUGACCCAUCUGAUC,SMAD5,-1.302
UCAGUUACAAGAACUACUC,LINC00703,1.287
UCACAUUCUCCAAUUGUAG,LOC728095,-0.01755
UGACUCUUGUUGCCCAUGC,ATAD3C,0.0448
UAUCAUCUCCAACAGGACC,UBE2D2,-0.7259
UUAACUGACUUUACCCUGG,SMAP2,0.3504
UAAUUUUCAAGGUAUGAUC,ROBO1,0.6205
UUUUCCUCCAUGACUUUGC,OSBPL7,0.09453
UGGAGUCUUAGGAUGCUUG,ZNF706,0.6297
AAAGAGCUCAGGGUACUGC,RLBP1,0.8321
UGAAUGAGCAGAGUCAAGG,DNAAF2,-1.03
UGCUUGUAAUAAAUCAUUC,CDC27,0.2076
UACUGUUCUACCAACAGCU,PLIN2,0.4142
AUUUAGAUAAUGAUCUGUG,LONP2,-0.3532
UUCGUUUUUACCAUCCACC,ADAM17,-0.9744
UUUUGAUCUGGGUUAAUUC,RALYL,-0.7669
AUACUUAGUACUACGUCUG,FNDC3A,-0.08542
UUUGUCAACAUCUCCACUG,OR5L2,-1.306
UCAGGAAAGAGGCUCAAGU,ALS2CL,0.5724
UAACAUAUUCGAAGUCUAG,DCAF15,0.2979
AGUUCGAAUAUUGUCAUCC,VPS53,0.3116
AAAGGAGUCGGUCUCUUCU,TPGS2,1.841
AAUGUUUCCGUGAUGGACG,KCNMB2,-0.482
AAUGUAACCUGGUAUUUGG,OR52J3,0.3844
UUCUUGUAAGUAACUCUCG,RAN,-1.11
UAGCGUGUAGAUUACAGGG,OR4K15,0.1792
UGUUUAAGAACACCUAUCC,PPP4R1,-0.6934
UCUAGAAUAGGUAUUUUUC,F7,-0.06539
UUUGUCAGCAGCAUUGGUC,PRSS55,-0.04674
UACAAGUUAACAUAGCUCG,ZNF365,0.7118
AAAUAGACCAUGAGGAGAG,DPAGT1,0.8634
UCACAUCUAGGUUUACCGC,LRRC37A,0.8958
UUUCCUUUGUGCUGCACUC,OBSCN,-0.3142
UAACUUUAGAUGUCACAGA,IFI27L1,0.4991